In the supplement of paper PMC11348887:
“And” between values parts separate entries of the source, which are not always exact repeats. Equal values may be shown once. Where a name gives a salt, the structure may show the parent alone. The list shows a part of the results. Most values lie at the level of the controls, where differences are scatter.

Assays:
Details in all cases: 5 µM; treatment: days 7-14 after plating, readout day 21
[1] = tested on: hPSC-derived cortical neurons (WA09); experiment: nucleus area z-score vs screen plate; higher = larger nuclei (more mature)
[2] = tested on: hPSC-derived cortical neurons (WA09); experiment: total neurite length per nucleus (MAP2) z-score; higher = more neurite growth
[3] = tested on: hPSC-derived cortical neurons (WA09); experiment: nucleus roundness z-score vs screen plate; higher = rounder nuclei (more mature)
[4] = tested on: hPSC-derived cortical neurons (WA09); experiment: KCl-induced FOS+/EGR-1+ double-positive nuclei fraction z-score (KCl minus unstimulated); higher = stronger activity-induced IEG response

Structure (SMILES) | nucleus area z-score [1] | total neurite length per nucleus (z-score) [2] | nucleus roundness z-score [3] | KCl-induced FOS+/EGR-1+ double-positive nuclei fraction z-score [4]
Clc1ccc(CSC(Cn2ccnc2)c2ccc(Cl)cc2Cl)cc1 (centres undefined) [Sulconazole Nitrate] | -1.47 | -1.48 | -1.52 | -0.0835
O=C(O)Cc1cccc(OCCCN(Cc2cccc(C(F)(F)F)c2Cl)CC(c2ccccc2)c2ccccc2)c1 | 0.23 | 0.0376 | 0.502 | 0.00457
Nc1cc(F)ccc1NC(=O)/C=C/c1cnn(C/C=C/c2ccccc2)c1 | 0.0344 | 0.249 | 0.18 | -0.256
CN[C@H](CC(C)C)C(=O)N[C@H]1C(=O)N[C@@H](CC(N)=O)C(=O)N[C@H]2C(=O)N[C@H]3C(=O)N[C@H](C(=O)N[C@H](C(=O)O)c4cc(O)cc(O)c4-c4cc3ccc4O)[C@H](O)c3ccc(c(Cl)c3)Oc3cc2cc(c3O[C@@H]2O[C@H](CO)[C@@H](O)[C@H](O)[C@H]2O[C@H]2C[C@](C)(N)[C@H](O)[C@H](C)O2)Oc2ccc(cc2Cl)[C@H]1O [Vancomycin HCl] | -0.586 | -0.315 | -0.331 | 0.425
Cc1ccc(C(=O)C(C)CN2CCCCC2)cc1 (centres undefined) [Tolperisone HCl] | 0.9 | -0.912 | -0.267 | -0.572
CNNCc1ccc(C(=O)NC(C)C)cc1 [Procarbazine HCl] | 0.0434 | 0.748 | 0.531 | 0.262
N[C@@H]1CONC1=O [D-Cycloserine] | -0.242 | -0.827 | -0.0793 | -0.988
O=C([C@@H](Cc1cccc(C(F)(F)F)c1)NS(=O)(=O)c1cc(F)c2c(c1)CCNC2)N1CCCC1 | 1.45 | 0.493 | 1.31 | 1.47
CC(O)c1cc(C(=O)N[C@@H](C)Cn2ccc(-c3ccc(C#N)c(Cl)c3)n2)n[nH]1 (some centres undefined) | 0.716 | 0.629 | 0.741 | 0.0968
CSc1ccc2c(c1)N(CCC1CCCCN1C)c1ccccc1S2 (centres undefined) [Thioridazine HCl] | -2.6 | -1.81 | -2.59 | -1.02
CC(C)(CO)C(O)C(=O)NCCCO (racemic) [DL-Panthenol] | 0.409 | -0.493 | 0.306 | -1.34
OCCOCCN1CCN(C(c2ccccc2)c2ccc(Cl)cc2)CC1 (centres undefined) [Hydroxyzine 2HCl] | -0.782 | -1.12 | 0.048 | 0.167
Nc1nc(O)c2ncn(CCC(CO)CO)c2n1 [Penciclovir] | -0.569 | 0.39 | 0.842 | 0.807
C=C[C@](C)(O)CC[C@@H]1[C@@]2(C)CCCC(C)(C)[C@@H]2CC[C@@]1(C)O [Sclareol] | -0.192 | -0.199 | 0.339 | -0.498
COc1nc(N)nc2c1ncn2[C@@H]1O[C@H](CO)[C@@H](O)[C@@H]1O [Nelarabine] | 0.195 | 2.18 | -0.00755 | 0.819
Cc1[nH]c(/C=C2\C(=O)Nc3ccc(S(=O)(=O)Cc4c(Cl)cccc4Cl)cc32)c(C)c1C(=O)N1CCC[C@@H]1CN1CCCC1 | -8.27 | -3.96 | -4.47 | -0.85
COc1cc(-c2cc(-c3cccc(O)c3)cnc2N)cc(OC)c1OC | 3.58 | 0.0936 | -0.392 | 1.54
COC(=O)C1=C(C)NC(C)=C(C(=O)OCCN(C)Cc2ccccc2)C1c1cccc([N+](=O)[O-])c1 (centres undefined) [Nicardipine HCl] | -2.44 | -1.45 | -0.868 | -0.355
CC1=Nc2ccc(Cl)cc2S(=O)(=O)N1 [Diazoxide] | 0.445 | 0.0682 | 1.21 | 1.2
COc1nc(-c2ccc3c(c2)OCO3)n(-c2ccc(NC(=O)CSc3ccccc3)cc2)n1 [SecinH3] | 0.499 | 0.273 | -0.0944 | -0.195
COc1cc2c(cc1OC)CN(CCc1ccc(NC(=O)c3cccc4c(=O)c5cccc(OC)c5[nH]c34)cc1)CC2 | -12.4 | -4.64 | -2.01 | -1.09
O=C(NC(Cc1cc(=O)[nH]c2ccccc12)C(=O)O)c1ccc(Cl)cc1 (centres undefined) [Rebamipide] | 0.503 | -0.826 | -0.36 | 0.196
Nc1ccn([C@@H]2CS[C@H](CO)O2)c(=O)n1 [Lamivudine] | 1.02 | -0.488 | -0.926 | -0.585
C=CC(=O)Nc1ccc2ncnc(Nc3ccc(OCc4cccc(F)c4)c(Cl)c3)c2c1 | -4.09 | -1.37 | -2.94 | -2.84
Cc1cnc(-c2cnc(NCCNc3ccc(C#N)cn3)nc2-c2ccc(Cl)cc2Cl)[nH]1 | – | -3.41 and -3.13 | -3.75 and -3.32 | -1.05 and -1.57
Nc1ccc(S(=O)(=O)Nc2ncccn2)cc1 [Sodium sulfadiazine] | 0.703 | 0.804 | 0.0175 | -0.0736
CN[C@@H]1[C@@H](O)[C@@H](O[C@@H]2[C@@H](O)[C@H](O[C@H]3O[C@H](CN)[C@@H](O)[C@H](O)[C@H]3O)[C@@H](N)C[C@H]2NC(=O)[C@@H](O)CN)OC[C@]1(C)O [Isepamicin Sulphate] | 1.51 | -1.5 | -0.965 | 0.617
S=C(NCc1ccc2c(c1)OCO2)N1CCN(c2ncnc3c2oc2ccccc23)CC1 [Amuvatinib (MP-470)] | -0.0153 | 0.0498 | 0.93 | 1.66

Structure (SMILES) | nucleus area z-score [1] | total neurite length per nucleus (z-score) [2] | nucleus roundness z-score [3] | KCl-induced FOS+/EGR-1+ double-positive nuclei fraction z-score [4]
C/C(=C\C(=O)OCCCCCCCCC(=O)O)C[C@@H]1OC[C@H](C[C@@H]2O[C@H]2[C@@H](C)[C@H](C)O)[C@@H](O)[C@H]1O [Mupirocin] | 0.226 | -0.0276 | 0.104 | 2.8
O=c1cc(N2CCOCC2)oc2c(-c3ccccc3)cccc12 | 0.13 | 0.153 | 1.32 | -0.0806
CN(C)Cc1cccc(N/C(=C2\C(=O)Nc3cc(C(N)=O)ccc32)c2ccccc2)c1 | -0.0564 | -0.371 | -1.25 | -0.917
O=C(/C=C/c1cccc(S(=O)(=O)Nc2ccccc2)c1)NO [Belinostat (PXD101)] | -8.82 | -3.69 | -6.42 | -1.43
CCOC(=O)[C@H](CCc1ccccc1)N[C@@H](C)C(=O)N1[C@H](C(=O)O)C[C@@H]2CCC[C@@H]21 [Ramipril] | 0.195 | 0.147 | 0.0984 | -1.1
CCCN1CCCC[C@H]1C(=O)Nc1c(C)cccc1C [Ropivacaine HCl] | 0.381 | -0.032 | -0.279 | 1.01
O=[N+]([O-])c1ccc2c(c1)S(=O)(=O)C=C2 [Stattic] | -0.318 | -0.916 | -0.288 | 0.369
CN[C@@H](C)C(=O)N[C@H]1CN(C(=O)CC(C)C)CC[C@H]2CC[C@@H](C(=O)NC(c3ccccc3)c3ccccc3)N2C1=O | -0.134 | -0.503 | -0.772 | -0.364
COc1cc(O)c(C(=O)c2ccccc2)cc1S(=O)(=O)O [Sulisobenzone] | 1.79 | -0.479 | -0.449 | 0.579
CC(C)OC(=O)C(C(=O)OC(C)C)=C1SC=CS1 [Malotilate] | 0.892 | 1.57 | 1.43 | 0.0615
CCN(CC)CC(=O)Nc1c(C)cccc1C [Lidocaine] | 1.13 | -0.641 | -0.271 | 0.907
CC/C(=C(\c1ccc(O)cc1)c1ccc(OCCN(C)C)cc1)c1ccccc1 [4-Hydroxytamoxifen] | -2.57 | -2.44 | -2.2 | -0.905
c1cc(-c2cnn3cc(-c4ccc(N5CCNCC5)cc4)cnc23)c2cccnc2c1 | -14.9 | -3.97 | -1.32 | -1.03
Cc1ccc(Nc2nccc(N(C)c3ccc4c(C)n(C)nc4c3)n2)cc1S(N)(=O)=O | 0.0454 | 1.74 | 0.165 | 2.07
Nc1c2ccccc2nc2ccccc12 [9-Aminoacridine] | 1.48 | 0.118 | -0.567 | -0.0783
N#Cc1ccc(C(c2ccc(C#N)cc2)n2cncn2)cc1 [Letrozole] | 0.407 | 0.386 | 1.45 | -0.099
Cn1nnc(-c2ccc3c(c2)[nH]c2nc(Cc4ccccc4)nc(NC4CCC(N)CC4)c23)n1 (centres undefined) | -14.5 | -5.08 | -0.735 | -0.319
CC(=O)O[C@]1(C(C)=O)CC[C@H]2[C@@H]3C[C@H](C)C4=CC(=O)CC[C@]4(C)[C@H]3CC[C@@]21C [Medroxyprogesterone acetate] | 0.597 | 0.574 | -0.575 | 0.149
CO/N=C(\C(=O)N[C@@H]1C(=O)N2C(C(=O)O)=C(CSc3nc(=O)c(O)nn3C)CS[C@H]12)c1csc(N)n1 [Ceftriaxone Sodium Trihydrate] | 0.555 | 0.457 | 0.185 | 0.422
NCCC[C@H](N)C(=O)O [L-Ornithine] | 1.21 | 0.92 | 1.5 | 0.943
CC(C)NC(=O)COc1cccc(-c2nc(Nc3ccc4[nH]ncc4c3)c3ccccc3n2)c1 | -1.49 | -2.19 | -2.3 | -0.393
CNC(=O)c1cccc(-c2ccc3c(N4CCOC[C@@H]4C)nc(N4CCOC[C@@H]4C)nc3n2)c1 | -4.77 | -1.36 | -2.7 | -0.506
C=CCNC1=C2C[C@@H](C)C[C@H](OC)[C@H](O)[C@@H](C)/C=C(\C)[C@H](OC(N)=O)[C@@H](OC)/C=C\C=C(/C)C(=O)NC(=CC1=O)C2=O [17-AAG (Tanespimycin)] | 2.43 | 4.31 | 0.615 | -0.0379
COC(=O)N[C@H](C(=O)N1CC2(CC2)C[C@H]1c1nc(-c2ccc3c(c2)C(F)(F)c2cc(-c4ccc5[nH]c([C@@H]6[C@H]7CC[C@H](C7)N6C(=O)[C@@H](NC(=O)OC)C(C)C)nc5c4)ccc2-3)c[nH]1)C(C)C [Ledipasvir (GS5885)] | -1.2 | -1.17 | -0.927 | -1.11
Cc1cc(C)cc(C(=O)NOCCCCCC(=O)NO)c1 | -13.6 | -4.97 | -6.88 | -1.26
OC(CCCN1CCCCC1)(c1ccccc1)c1ccccc1 [Diphenidol HCl] | 0.521 | -0.269 | 0.422 | 0.13
Cc1ccsc1C(=CCCN1CCC[C@@H](C(=O)O)C1)c1sccc1C [Tiagabine hydrochloride] | -0.447 | -0.28 | -0.428 | 0.00252

Some values from the results shown:
total neurite length per nucleus (z-score) [2], Cn1nnc(-c2ccc3c(c2)[nH]c2nc(Cc4ccccc4)nc(NC4CCC(N)CC4)c23)n1 (centres undefined) reads -5.08
nucleus area z-score [1], Cc1ccc(Nc2nccc(N(C)c3ccc4c(C)n(C)nc4c3)n2)cc1S(N)(=O)=O reads 0.0454
